The record followed here is publication PMC11534337.

Chains of the proteins cited; added tags and fusions are not shown. Lines headed by an entry give the natural chain unless they say otherwise; changes in a name come on top.
UniProt P26369: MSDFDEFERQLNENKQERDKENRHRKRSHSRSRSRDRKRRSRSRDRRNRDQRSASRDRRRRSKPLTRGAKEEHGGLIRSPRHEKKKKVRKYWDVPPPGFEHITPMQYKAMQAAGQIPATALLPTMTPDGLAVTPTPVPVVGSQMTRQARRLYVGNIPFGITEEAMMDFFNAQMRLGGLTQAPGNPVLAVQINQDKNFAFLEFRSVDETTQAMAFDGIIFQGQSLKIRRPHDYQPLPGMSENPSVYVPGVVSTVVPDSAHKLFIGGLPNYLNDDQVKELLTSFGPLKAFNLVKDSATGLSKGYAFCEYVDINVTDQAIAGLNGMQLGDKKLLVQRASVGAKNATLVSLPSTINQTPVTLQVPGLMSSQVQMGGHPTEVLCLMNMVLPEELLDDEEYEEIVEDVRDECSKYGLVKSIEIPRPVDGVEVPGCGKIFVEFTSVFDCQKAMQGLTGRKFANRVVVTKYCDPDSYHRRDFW
UniProt P26368: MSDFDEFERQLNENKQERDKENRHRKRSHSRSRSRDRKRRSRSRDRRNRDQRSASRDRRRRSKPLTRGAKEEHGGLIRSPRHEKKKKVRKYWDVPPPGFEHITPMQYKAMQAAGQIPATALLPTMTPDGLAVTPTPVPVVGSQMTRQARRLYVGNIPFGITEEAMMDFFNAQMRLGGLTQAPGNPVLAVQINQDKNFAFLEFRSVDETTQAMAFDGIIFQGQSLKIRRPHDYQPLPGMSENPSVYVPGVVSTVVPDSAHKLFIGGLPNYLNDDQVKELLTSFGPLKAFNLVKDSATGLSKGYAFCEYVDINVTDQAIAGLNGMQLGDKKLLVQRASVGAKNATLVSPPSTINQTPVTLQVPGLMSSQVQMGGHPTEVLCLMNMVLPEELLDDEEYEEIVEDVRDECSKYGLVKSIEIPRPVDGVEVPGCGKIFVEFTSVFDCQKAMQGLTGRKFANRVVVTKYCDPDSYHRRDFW

Experiment [1] deals with U2AF2 (mouse (endogenous in primary mouse TECs and mouse kidney)) (UniProt P26369). The experiment is described as follows: co-IP; whole-kidney lysates; IP with anti-U2AF2 antibody; endogenous proteins.
Experiment [2] addresses Flag-U2af2 WT (UniProt P26369). The experiment is described as follows: co-IP; WT TECs transfected with Flag-U2af2 and HA-Hat1 (Figure 4N) or with Flag-U2af2, Ad-Hat1 or Ad-shHat1 under TGF-β1 (Figure 4Q); IP with anti-Flag antibody.
Experiment [3] concerns the target Flag-U2AF2 K413R (UniProt P26368). Briefly: co-IP; HK2 cells transfected with Flag-U2AF2 WT or K413R; IP with anti-Flag antibody; with or without RNase; also under TGF-β1 with SIRT4 overexpression or knock-down (Figure 5D).
The target in experiment [4] is Flag-U2AF2 WT, P26368. The experiment is described as above. To be noted: remark: other sources report otherwise.

Results are given in words; binding and its absence hold for the method and conditions named. In cells and extracts the contact can be indirect. Some entries that bind do so weakly or less than the wild type. For some assays here: Tags and fused reporters may be left off the sequences shown.

B1: HAT1 (protein, UniProt Q8BY71 1-416)
chain: MAALEKFLVEYKSAVEKKLAEYKCNTNTAIELKLVRFPEDLENDIRTFFPEYTHQLFGDDETAFGYKGLKILLYYIAGSLSTLFRVEYSSKVDENFDCVEADDVEGKIRQIIPPGFCTNTNDFLSLLEKETNFKPFGTLLHTYTVPSQTGGETFTFQIHKADMTCRGFREYHERLQTFLMWFIETASFIDVDDERWHYFLVFEKYNKDGATLFATVGYMTVYNYYVYPDKTRPRVSQMLILTPFQGQGHGAQLLETVHRYYISFPTVLDITAEDPSRSYLKLRDFVLVKFCQFLPSFSRERLLQGFSEDMAIQAQQMFKINKQHARRVYEILRLLVTDMSDAEQYRSYRLDIKRRLISPYKKKQRDLAKMKKCLRPEELTNQMNQIEISVQHEQLEERFQELVEDYRRVIERLAQE
Regarding B1, in experiment [1], the binding entry is on record as “binds”.

B2: HA-Hat1 (protein, UniProt Q8BY71 1-416)
chain: MAALEKFLVEYKSAVEKKLAEYKCNTNTAIELKLVRFPEDLENDIRTFFPEYTHQLFGDDETAFGYKGLKILLYYIAGSLSTLFRVEYSSKVDENFDCVEADDVEGKIRQIIPPGFCTNTNDFLSLLEKETNFKPFGTLLHTYTVPSQTGGETFTFQIHKADMTCRGFREYHERLQTFLMWFIETASFIDVDDERWHYFLVFEKYNKDGATLFATVGYMTVYNYYVYPDKTRPRVSQMLILTPFQGQGHGAQLLETVHRYYISFPTVLDITAEDPSRSYLKLRDFVLVKFCQFLPSFSRERLLQGFSEDMAIQAQQMFKINKQHARRVYEILRLLVTDMSDAEQYRSYRLDIKRRLISPYKKKQRDLAKMKKCLRPEELTNQMNQIEISVQHEQLEERFQELVEDYRRVIERLAQE
As to B2, in experiment [2], the binding result is given as “binds”.

B3: HAT1 (Figure 4Q) (protein, UniProt Q8BY71 1-416)
chain: MAALEKFLVEYKSAVEKKLAEYKCNTNTAIELKLVRFPEDLENDIRTFFPEYTHQLFGDDETAFGYKGLKILLYYIAGSLSTLFRVEYSSKVDENFDCVEADDVEGKIRQIIPPGFCTNTNDFLSLLEKETNFKPFGTLLHTYTVPSQTGGETFTFQIHKADMTCRGFREYHERLQTFLMWFIETASFIDVDDERWHYFLVFEKYNKDGATLFATVGYMTVYNYYVYPDKTRPRVSQMLILTPFQGQGHGAQLLETVHRYYISFPTVLDITAEDPSRSYLKLRDFVLVKFCQFLPSFSRERLLQGFSEDMAIQAQQMFKINKQHARRVYEILRLLVTDMSDAEQYRSYRLDIKRRLISPYKKKQRDLAKMKKCLRPEELTNQMNQIEISVQHEQLEERFQELVEDYRRVIERLAQE
As to B3, the binding result in experiment [2] is recorded as “binds”.

B4: U2 small nuclear RNA auxiliary factor 1 (U2AF1) (protein, UniProt Q01081 1-240)
chain: MAEYLASIFGTEKDKVNCSFYFKIGACRHGDRCSRLHNKPTFSQTIALLNIYRNPQNSSQSADGLRCAVSDVEMQEHYDEFFEEVFTEMEEKYGEVEEMNVCDNLGDHLVGNVYVKFRREEDAEKAVIDLNNRWFNGQPIHAELSPVTDFREACCRQYEMGECTRGGFCNFMHLKPISRELRRELYGRRRKKHRSRSRSRERRSRSRDRGRGGGGGGGGGGGGRERDRRRSRDRERSGRF
Regarding B4, the binding entry in experiment [3] was “binds”.

B5: U2 small nuclear RNA auxiliary factor 1 (U2AF1), Q01081 1-240 (protein)
chain: MAEYLASIFGTEKDKVNCSFYFKIGACRHGDRCSRLHNKPTFSQTIALLNIYRNPQNSSQSADGLRCAVSDVEMQEHYDEFFEEVFTEMEEKYGEVEEMNVCDNLGDHLVGNVYVKFRREEDAEKAVIDLNNRWFNGQPIHAELSPVTDFREACCRQYEMGECTRGGFCNFMHLKPISRELRRELYGRRRKKHRSRSRSRERRSRSRDRGRGGGGGGGGGGGGRERDRRRSRDRERSGRF
In the case of B5, in experiment [4], the binding entry is recorded as “binds”.
